Assay results: article PMC12085317

T1: CSTF2_TurboID_HA fusion protein (UniProt P33240)
T1 sequence: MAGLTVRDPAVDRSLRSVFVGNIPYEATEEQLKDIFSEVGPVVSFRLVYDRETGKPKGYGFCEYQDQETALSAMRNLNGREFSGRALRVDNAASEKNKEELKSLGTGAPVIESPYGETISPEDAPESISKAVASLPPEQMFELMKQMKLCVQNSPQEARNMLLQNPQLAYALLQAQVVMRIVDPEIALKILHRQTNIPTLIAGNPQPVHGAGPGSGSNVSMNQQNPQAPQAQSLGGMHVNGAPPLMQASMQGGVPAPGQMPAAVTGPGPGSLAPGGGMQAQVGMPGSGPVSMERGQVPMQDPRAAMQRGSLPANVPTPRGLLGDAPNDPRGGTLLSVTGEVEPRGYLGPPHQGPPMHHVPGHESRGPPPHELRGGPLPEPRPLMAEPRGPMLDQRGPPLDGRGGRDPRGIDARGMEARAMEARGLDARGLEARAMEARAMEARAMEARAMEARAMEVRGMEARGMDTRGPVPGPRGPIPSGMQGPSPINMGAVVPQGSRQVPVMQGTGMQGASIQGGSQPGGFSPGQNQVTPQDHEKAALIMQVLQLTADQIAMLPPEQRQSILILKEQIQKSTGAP


How the values were obtained:
[1] = biological target: T1, CSTF2_TurboID_HA fusion protein; assay: proximity labelling; CSTF2_TurboID_HA expressed in MCF7 cells, 50 µM biotin and 1 mM ATP for 3 h, with 100 nM E2 or ethanol; biotinylated proteins of nuclear and cytoplasmic lysates captured on beads (Neutravidin agarose in the methods, streptavidin magnetic beads in the results), LC-MS/MS; cytoplasmic proteins subtracted from the nuclear list; SAINT scoring
[2] = biological target: T1, CSTF2_TurboID_HA fusion protein; assay: proximity labelling; independent experiment: CSTF2-TurboID in MCF7 cells, 50 µM biotin with or without E2 for 45 min and 3 h; nuclear and cytoplasmic lysates, affinity capture with streptavidin beads, western blot with anti-ADAR1, anti-CSTF2 and anti-Biotin

| Binder | binding [1] | binding [2] |
| --- | --- | --- |
| ADAR1 (protein, UniProt P55265 1-1226) MNPRQGYSLSGYYTHPFQGYEHRQLRYQQPGPGSSPSSFLLKQIEFLKGQLPEAPVIGKQTPSLPPSLPGLRPRFPVLLASSTRGRQVDIRGVPRGVHLRSQGLQRGFQHPSPRGRSLPQRGVDCLSSHFQELSIYQDQEQRILKFLEELGEGKATTAHDLSGKLGTPKKEINRVLYSLAKKGKLQKEAGTPPLWKIAVSTQAWNQHSGVVRPDGHSQGAPNSDPSLEPEDRNSTSVSEDLLEPFIAVSAQAWNQHSGVVRPDSHSQGSPNSDPGLEPEDSNSTSALEDPLEFLDMAEIKEKICDYLFNVSDSSALNLAKNIGLTKARDINAVLIDMERQGDVYRQGTTPPIWHLTDKKRERMQIKRNTNSVPETAPAAIPETKRNAEFLTCNIPTSNASNNMVTTEKVENGQEPVIKLENRQEARPEPARLKPPVHYNGPSKAGYVDFENGQWATDDIPDDLNSIRAAPGEFRAIMEMPSFYSHGLPRCSPYKKLTECQLKNPISGLLEYAQFASQTCEFNMIEQSGPPHEPRFKFQVVINGREFPPAEAGSKKVAKQDAAMKAMTILLEEAKAKDSGKSEESSHYSTEKESEKTAESQTPTPSATSFFSGKSPVTTLLECMHKLGNSCEFRLLSKEGPAHEPKFQYCVAVGAQTFPSVSAPSKKVAKQMAAEEAMKALHGEATNSMASDNQPEGMISESLDNLESMMPNKVRKIGELVRYLNTNPVGGLLEYARSHGFAAEFKLVDQSGPPHEPKFVYQAKVGGRWFPAVCAHSKKQGKQEAADAALRVLIGENEKAERMGFTEVTPVTGASLRRTMLLLSRSPEAQPKTLPLTGSTFHDQIAMLSHRCFNTLTNSFQPSLLGRKILAAIIMKKDSEDMGVVVSLGTGNRCVKGDSLSLKGETVNDCHAEIISRRGFIRFLYSELMKYNSQTAKDSIFEPAKGGEKLQIKKTVSFHLYISTAPCGDGALFDKSCSDRAMESTESRHYPVFENPKQGKLRTKVENGEGTIPVESSDIVPTWDGIRLGERLRTMSCSDKILRWNVLGLQGALLTHFLQPIYLKSVTLGYLFSQGHLTRAICCRVTRDGSAFEDGLRHPFIVNHPKVGRVSIYDSKRQSGKTKETSVNWCLADGYDLEILDGTRGTVDGPRNELSRVSKKNIFLLFKKLCSFRYRRDLLRLSYGEAKKAARDYETAKNYFKKGLKDMGYGNWISKPQEEKNFYLCPV | binds | binds |
| CPSF3 (protein, UniProt Q9UKF6 1-684) MSAIPAEESDQLLIRPLGAGQEVGRSCIILEFKGRKIMLDCGIHPGLEGMDALPYIDLIDPAEIDLLLISHFHLDHCGALPWFLQKTSFKGRTFMTHATKAIYRWLLSDYVKVSNISADDMLYTETDLEESMDKIETINFHEVKEVAGIKFWCYHAGHVLGAAMFMIEIAGVKLLYTGDFSRQEDRHLMAAEIPNIKPDILIIESTYGTHIHEKREEREARFCNTVHDIVNRGGRGLIPVFALGRAQELLLILDEYWQNHPELHDIPIYYASSLAKKCMAVYQTYVNAMNDKIRKQININNPFVFKHISNLKSMDHFDDIGPSVVMASPGMMQSGLSRELFESWCTDKRNGVIIAGYCVEGTLAKHIMSEPEEITTMSGQKLPLKMSVDYISFSAHTDYQQTSEFIRALKPPHVILVHGEQNEMARLKAALIREYEDNDEVHIEVHNPRNTEAVTLNFRGEKLAKVMGFLADKKPEQGQRVSGILVKRNFNYHILSPCDLSNYTDLAMSTVKQTQAIPYTGPFNLLCYQLQKLTGDVEELEIQEKPALKVFKNITVIQEPGMVVLEWLANPSNDMYADTVTTVILEVQSNPKIRKGAVQKVSKKLEMHVYSKRLEIMLQDIFGEDCVSVKDDSILSVTVDGKTANLNLETRTVECEEGSEDDESLREMVELAAQRLYEALTPVH | binds |  |
| CPSF2 (protein, UniProt Q9P2I0 1-782) MTSIIKLTTLSGVQEESALCYLLQVDEFRFLLDCGWDEHFSMDIIDSLRKHVHQIDAVLLSHPDPLHLGALPYAVGKLGLNCAIYATIPVYKMGQMFMYDLYQSRHNTEDFTLFTLDDVDAAFDKIQQLKFSQIVNLKGKGHGLSITPLPAGHMIGGTIWKIVKDGEEEIVYAVDFNHKREIHLNGCSLEMLSRPSLLITDSFNATYVQPRRKQRDEQLLTNVLETLRGDGNVLIAVDTAGRVLELAQLLDQIWRTKDAGLGVYSLALLNNVSYNVVEFSKSQVEWMSDKLMRCFEDKRNNPFQFRHLSLCHGLSDLARVPSPKVVLASQPDLECGFSRDLFIQWCQDPKNSIILTYRTTPGTLARFLIDNPSEKITEIELRKRVKLEGKELEEYLEKEKLKKEAAKKLEQSKEADIDSSDESDIEEDIDQPSAHKTKHDLMMKGEGSRKGSFFKQAKKSYPMFPAPEERIKWDEYGEIIKPEDFLVPELQATEEEKSKLESGLTNGDEPMDQDLSDVPTKCISTTESIEIKARVTYIDYEGRSDGDSIKKIINQMKPRQLIIVHGPPEASQDLAECCRAFGGKDIKVYMPKLHETVDATSETHIYQVRLKDSLVSSLQFCKAKDAELAWIDGVLDMRVSKVDTGVILEEGELKDDGEDSEMQVEAPSDSSVIAQQKAMKSLFGDDEKETGEESEIIPTLEPLPPHEVPGHQSVFMNEPRLSDFKQVLLREGIQAEFVGGVLVCNNQVAVRRTETGRIGLEGCLCQDFYRIRDLLYEQYAIV | binds |  |

Results are given in words; binding and its absence hold for the method and conditions named. In cells and extracts the contact can be indirect. A yes stands for co-enrichment or nearness to the bait. Other partners may have been found. Where a sequence is shown, tags or fusion partners need not be part of it.
